According to publication doi:10.64898/2025.12.08.693079:
Results are given in words; binding and its absence hold for the method and conditions named. In cells and extracts the contact can be indirect. Here binding means that the protein was enriched with, or labelled near, the bait; the list need not be complete. Blank lines part the entries; values can stand above or below the molecule they belong to.

Protein sequences, listed by entry. Tags and fused reporters are not part of them.
UniProt P43583: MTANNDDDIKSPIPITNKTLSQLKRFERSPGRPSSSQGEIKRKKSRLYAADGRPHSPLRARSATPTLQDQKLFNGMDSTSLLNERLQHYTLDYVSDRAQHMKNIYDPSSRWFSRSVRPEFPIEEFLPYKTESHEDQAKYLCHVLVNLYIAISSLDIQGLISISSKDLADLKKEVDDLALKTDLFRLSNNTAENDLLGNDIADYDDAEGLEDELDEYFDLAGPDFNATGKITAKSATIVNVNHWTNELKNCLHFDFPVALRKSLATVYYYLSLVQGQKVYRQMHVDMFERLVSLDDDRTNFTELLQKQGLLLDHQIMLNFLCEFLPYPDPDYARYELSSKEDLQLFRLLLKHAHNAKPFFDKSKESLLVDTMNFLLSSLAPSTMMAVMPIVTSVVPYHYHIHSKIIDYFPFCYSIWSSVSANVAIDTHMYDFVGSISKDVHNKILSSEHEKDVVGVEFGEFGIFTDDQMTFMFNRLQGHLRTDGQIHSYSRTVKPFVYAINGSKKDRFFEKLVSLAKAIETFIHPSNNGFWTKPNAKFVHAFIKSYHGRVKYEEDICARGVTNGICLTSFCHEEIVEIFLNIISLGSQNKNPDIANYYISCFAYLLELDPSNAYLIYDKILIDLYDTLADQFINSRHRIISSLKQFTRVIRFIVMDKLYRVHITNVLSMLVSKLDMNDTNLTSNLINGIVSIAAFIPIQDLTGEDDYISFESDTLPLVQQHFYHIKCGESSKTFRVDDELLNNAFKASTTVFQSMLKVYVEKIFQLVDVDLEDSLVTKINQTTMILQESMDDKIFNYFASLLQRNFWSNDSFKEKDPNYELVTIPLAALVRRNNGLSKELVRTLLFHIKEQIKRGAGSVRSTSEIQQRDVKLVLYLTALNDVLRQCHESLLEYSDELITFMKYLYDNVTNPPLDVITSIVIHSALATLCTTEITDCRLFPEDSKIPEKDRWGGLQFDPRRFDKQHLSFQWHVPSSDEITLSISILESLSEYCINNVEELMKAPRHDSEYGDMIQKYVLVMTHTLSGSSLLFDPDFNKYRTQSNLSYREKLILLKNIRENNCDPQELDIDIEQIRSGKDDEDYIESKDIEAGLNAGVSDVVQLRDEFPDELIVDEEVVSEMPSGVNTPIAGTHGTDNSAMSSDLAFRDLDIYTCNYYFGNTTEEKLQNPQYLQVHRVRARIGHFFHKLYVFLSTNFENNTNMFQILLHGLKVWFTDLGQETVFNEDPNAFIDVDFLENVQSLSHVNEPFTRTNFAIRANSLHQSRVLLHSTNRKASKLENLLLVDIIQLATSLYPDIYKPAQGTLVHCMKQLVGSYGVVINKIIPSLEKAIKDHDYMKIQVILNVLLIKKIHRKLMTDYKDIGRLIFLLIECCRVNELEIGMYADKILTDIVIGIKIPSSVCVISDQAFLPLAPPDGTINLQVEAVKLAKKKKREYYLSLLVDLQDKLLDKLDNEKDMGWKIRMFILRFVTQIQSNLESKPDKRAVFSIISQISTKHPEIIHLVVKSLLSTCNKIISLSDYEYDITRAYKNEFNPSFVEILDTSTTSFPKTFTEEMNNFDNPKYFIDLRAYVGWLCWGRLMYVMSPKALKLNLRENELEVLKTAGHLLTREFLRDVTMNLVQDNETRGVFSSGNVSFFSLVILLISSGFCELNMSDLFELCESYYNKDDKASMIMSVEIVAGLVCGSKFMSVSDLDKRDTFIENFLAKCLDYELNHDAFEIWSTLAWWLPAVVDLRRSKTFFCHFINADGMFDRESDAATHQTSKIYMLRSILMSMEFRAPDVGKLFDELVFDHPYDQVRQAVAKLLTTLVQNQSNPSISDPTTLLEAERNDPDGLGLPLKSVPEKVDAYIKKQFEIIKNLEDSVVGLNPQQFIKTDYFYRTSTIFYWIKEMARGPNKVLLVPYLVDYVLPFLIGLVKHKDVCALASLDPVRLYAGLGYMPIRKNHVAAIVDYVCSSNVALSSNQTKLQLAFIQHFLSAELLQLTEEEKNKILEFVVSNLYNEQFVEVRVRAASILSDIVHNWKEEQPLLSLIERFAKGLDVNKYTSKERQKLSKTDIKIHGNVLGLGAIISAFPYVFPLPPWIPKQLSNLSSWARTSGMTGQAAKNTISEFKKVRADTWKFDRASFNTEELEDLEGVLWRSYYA
UniProt P43588: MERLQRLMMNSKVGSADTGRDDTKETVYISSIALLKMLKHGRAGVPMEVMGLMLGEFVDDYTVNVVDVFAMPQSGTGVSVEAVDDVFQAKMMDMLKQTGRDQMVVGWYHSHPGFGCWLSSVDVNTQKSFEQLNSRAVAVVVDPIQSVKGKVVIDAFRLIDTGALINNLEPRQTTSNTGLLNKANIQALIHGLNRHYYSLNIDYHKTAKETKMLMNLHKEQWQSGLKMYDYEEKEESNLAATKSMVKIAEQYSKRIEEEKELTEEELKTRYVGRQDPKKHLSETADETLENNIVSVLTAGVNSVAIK
UniProt P29311: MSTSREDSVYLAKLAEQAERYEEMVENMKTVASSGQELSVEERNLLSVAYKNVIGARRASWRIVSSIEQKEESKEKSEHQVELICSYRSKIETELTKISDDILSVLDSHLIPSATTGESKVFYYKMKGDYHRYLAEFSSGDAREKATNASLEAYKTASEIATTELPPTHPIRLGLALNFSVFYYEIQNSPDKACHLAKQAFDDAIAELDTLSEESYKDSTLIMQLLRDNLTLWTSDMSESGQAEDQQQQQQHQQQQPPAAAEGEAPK
UniProt P34730: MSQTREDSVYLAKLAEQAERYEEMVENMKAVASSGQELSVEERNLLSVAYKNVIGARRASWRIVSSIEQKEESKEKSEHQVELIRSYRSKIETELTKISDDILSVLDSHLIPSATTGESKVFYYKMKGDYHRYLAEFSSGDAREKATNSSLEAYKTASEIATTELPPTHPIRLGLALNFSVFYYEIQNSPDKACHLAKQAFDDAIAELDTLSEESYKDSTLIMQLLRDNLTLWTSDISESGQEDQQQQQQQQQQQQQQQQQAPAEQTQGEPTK

Tests used:
[1] = target: 3x-Flag-tagged Blm10 (S. cerevisiae) (UniProt P43583); assay: affinity purification with mass spectrometry
[2] = target: 6His-Rpn11 (S. cerevisiae) (UniProt P43588); assay: affinity purification with mass spectrometry

- binding [1]: binds
Molecule: Bmh1 (from UniProt P29311 1-267)

- binding [1]: binds
Molecule: Bmh2 (from UniProt P34730 1-273)

- binding [2]: binds
B1: cyclin Cln2 (protein, UniProt P20438 1-545)
chain: MASAEPRPRMGLVINAKPDYYPIELSNAELLSHFEMLQEYHQEISTNVIAQSCKFKPNPKLIDQQPEMNPVETRSNIITFLFELSVVTRVTNGIFFHSVRLYDRYCSKRIVLRDQAKLVVATCLWLAAKTWGGCNHIINNVVIPTGGRFYGPNPRARIPRLSELVHYCGDGQVFDESMFLQMERHILDTLNWNIYEPMINDYVLNVDENCLMQYELYENQVTYDKQCSEKRQSQLSQDSDATVDERPYQNEEEEEEDLKLKIKLINLKKFLIDVSAWQYDLLRYELFEVSHGIFSIINQFTNQDHGPFLMTPMTSESKNGEILSTLMNGIVSIPNSLMEVYKTVNGVLPFINQVKEYHLDLQRKLQIASNLNISRKLTISTPSCSFENSNSTSIPSPASSSQSHTPMRNMSSLSDNSVFSRNMEQSSPITPSMYQFGQQQSNSICGSTVSVNSLVNTNNKQRIYEQITGPNSNNATNDYIDLLNLNESNKENQNPATAHYLNGGPPKTSFINHGMFPSPTGTINSGKSSSASSLISFGMGNTQVI
